Source: US12699101B2, “Maximizing hydrophobic peptide recovery using a mass spectrometry compatible surfactant” (Regeneron Pharmaceuticals, Inc., priority 2022, dated 2026)

Assay: Single cell proteomics LC-MS/MS analysis of 0.2 ng HeLa digests prepared with DDM or FA
Set-up: species or system human
Details: 0.2 ng HeLa digest, 0.015% DDM
Method: HeLa cell lysate protein digests were diluted to 0.05 ng/μL by 0.1% FA or 0.015% DDM solution, and 0.2 ng (4 μL) was injected onto the LC-MS to simulate single cell sample analysis. Sixteen synthetic peptides from a mAb's constant region and CDR were diluted and mixed to a final concentration of 10 fmol/μL by 0.1% FA, 0.015% DDM solution or complex cell digest matrix. In reconstitution experiments, 20 μL of 500 fmol/μL BSA digests and 200 ng/μL HeLa digests were aliquoted into vials and dried in vacuo. Dried samples were reconstituted by 0.1% FA or 0.015% DDM solution. One picomole BSA digests and 100 ng HeLa digests were loaded onto the column for nanoLC-MS/MS analysis.
Single cell samples and reconstituted samples were analyzed using an UltiMate 3000 RSLCnano system (Thermo Scientific) coupled to an Orbitrap Exploris 480 mass spectrometer (Thermo Scientific). […]
Database searches for protein identification were performed using SEQUEST and Mascot embedded into Proteome Discoverer 2.2 (Thermo Fisher Scientific). […] Peptide mapping and BSA sample data were analyzed using Protein Metrics Byonic™ (version 3.11.3) by searching the raw files against the mAb or BSA protein sequence. All peptide quantification was executed using Skyline Daily software (University of Washington, WA) by extracting the MS' peak area of all detected charge states. […]

In the case of `CCCCCCCCCCCCO[C@@H]1O[C@H](CO)[C@@H](O[C@H]2O[C@H](CO)[C@@H](O)[C@H](O)[C@H]2O)[C@H](O)[C@H]1O` [DDM, N-dodecyl-β-D-maltoside], the “number of identified protein groups” value (triplicate (control 0.1% FA: 168)) is reported as 368 and the “number of identified unique peptides” value (triplicate (control 0.1% FA: 363)) is reported as 964.
